Laboratory results taken from publication PMC6189217.

Biological target: T1, FLAG-PPARγ^WT (peroxisome proliferator-activated receptor gamma), stably expressed in PPARγ-null MEFs, P37238
T1 chain: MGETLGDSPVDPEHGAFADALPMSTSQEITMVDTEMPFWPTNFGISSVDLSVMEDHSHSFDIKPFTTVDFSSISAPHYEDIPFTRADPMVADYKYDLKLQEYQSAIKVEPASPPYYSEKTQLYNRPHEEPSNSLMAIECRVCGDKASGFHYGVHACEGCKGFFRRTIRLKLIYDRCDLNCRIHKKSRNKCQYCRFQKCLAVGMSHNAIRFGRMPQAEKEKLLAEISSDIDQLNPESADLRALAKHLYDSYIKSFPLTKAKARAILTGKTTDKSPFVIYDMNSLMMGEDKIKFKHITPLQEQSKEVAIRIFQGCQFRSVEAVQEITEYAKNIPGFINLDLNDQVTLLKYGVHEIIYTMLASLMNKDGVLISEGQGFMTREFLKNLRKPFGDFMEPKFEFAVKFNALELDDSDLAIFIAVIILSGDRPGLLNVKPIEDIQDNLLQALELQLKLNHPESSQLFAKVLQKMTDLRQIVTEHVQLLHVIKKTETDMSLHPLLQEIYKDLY
Assay: affinity purification with mass spectrometry; nuclear extracts of PPARγ-null MEFs stably expressing FLAG-PPARγ^WT on FLAG M2 agarose, eluted with FLAG peptide; SDS-PAGE bands excised, trypsin, LC-MS/MS
Conditions: remark: other sources report otherwise

B1: TRIM25 (tripartite motif-containing 25), endogenous in MEF nuclear extract, Q61510 1-634 (protein)
chain: MAELNPLAEELSCSVCLELFKEPVTTPCGHNFCMSCLDETWVVQGPPYRCPQCRKVYQVRPQLQKNTVMCAVVEQFLQAEQARTPVDDWTPPARFSASSAATQVACDHCLTEIAVKTCLVCMASFCQEHLRPHFDSPAFQDHPLQSPIRDLLRRKCTQHNRLRELFCPEHGECICHICLVEHKTCSPTTLSQASADLEYKLRNKLTIMHSHINGATKALEDVRSKQQCVQDSMKRKMEQLRQEYMEMKAVIDAAETSSLRKLKEEEKRVYGKFDTIYQVLVKKKSEMQKLKAEVELIMDKGDEFEFLEKAAKLQGESTKPVYIPKIDLDHDLIMGIYQGAADLKSELKHSIKKLQKKSEEHNGSGNKGDQTQSTFKPVQPSKKTIQEKKTKKTPVAPGPPSHFSPNKLPTFGAPGQSLDSKATSPDAAPKASAAQPDSVGVKAKVLENFLTKSRTELLEYFVKVIFDYNTAHNKVSLSNKYTTASVSDGLQHYRSHPQRFTYCSQVLGLHCYKNGIHYWEVELQKNNFCGVGICYGSMERQGPESRLGRNPNSWCVEWFNNKISAWHNNVEKTLPSTKATRVGVLLNCDHGFVIFFAVTEKVHLMYKFKVDFTEALYPAFWVFSAGTTLSICSK
B1 was tested, and the binding was “binds”.

These are yes or no findings as the source states them, for the method shown. In cells and extracts the contact can be indirect. Here binding means that the protein was enriched with, or labelled near, the bait; the list need not be complete. Tags and fused reporters may be left off the sequences shown.
